According to patent publication WO2019080889A1 (dated 2019):
Where a chain is given by its changes, count along the chain named. Names may count otherwise. Results are given in words; binding and its absence hold for the method and conditions named. Some binding calls cover weakened binding; strength is not graded here.

Sequences of proteins named here, by UniProt entry; tags and fusion partners are left off. Residues count along the entry.
UniProt P07333, residues 20-517: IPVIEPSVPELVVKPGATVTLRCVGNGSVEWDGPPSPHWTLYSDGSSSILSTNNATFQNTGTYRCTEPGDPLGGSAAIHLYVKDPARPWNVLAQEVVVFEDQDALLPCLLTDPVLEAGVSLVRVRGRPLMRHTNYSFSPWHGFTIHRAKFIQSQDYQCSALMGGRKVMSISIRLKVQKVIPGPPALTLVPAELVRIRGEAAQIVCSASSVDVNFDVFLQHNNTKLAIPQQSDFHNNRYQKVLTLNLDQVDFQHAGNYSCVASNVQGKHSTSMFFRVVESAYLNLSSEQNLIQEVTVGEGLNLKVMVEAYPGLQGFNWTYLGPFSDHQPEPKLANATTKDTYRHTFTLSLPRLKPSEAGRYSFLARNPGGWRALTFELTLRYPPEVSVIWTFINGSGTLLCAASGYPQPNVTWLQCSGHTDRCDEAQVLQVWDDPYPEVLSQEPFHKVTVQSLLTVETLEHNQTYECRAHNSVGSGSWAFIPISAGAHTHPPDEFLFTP

B1: anti-CSF-1R chimeric antibody C18C (antibody, V domains shown)
VH: EVQLQQSGPELVKPGASVKISCKASAITFTDYYMNWVKQSPGKGLEWIGDINPNNGGTTYNQKFKGKATLTVDKSSTTAYMELRSLTSEDSAVYYCAREKISMEYYYAMDYWGQGTSVTVSS
VL: DIVLTQSPASLAVSLGQRATISCRASESVSSHDIHLMHWYQQKPGQSPKLLIYAASNLESGVPARFSGSGSATDFTLNIHPVEEEDAATYFCQQSIEDPPTFGGGTKLEIK
B2: anti-CSF-1R chimeric antibody C23C (antibody, V domains shown)
VH: EVQLQQSGPELVKPGTSVKISCQASGYTFTVYYMNWVKQSHGKSLEWIGDIDPNTGDSTYNQKFRGKATLTVDKSSSTAYMELRSLTSEDSAVYYCARYDGYIDYWGQGTTLTVSS
VL: DVVMTQTPLSLPVSLGDQASISCRSSQSIVHSNRHTYLEWYLQKPGQSLKLLIYGVSNRFSGVPDRFSGSGSGTDFTLKISRVEAEDMGIYYCFQGTHVPLTFGAGTKLELK
B3: anti-CSF-1R chimeric antibody C11C (antibody, V domains shown)
VH: EVQLQQSGPELVKPGASVKISCKASGYTFSNYYMNWVNQRHGERLEWIGEMNPNNGDSSYNQKFKGKATLTVDKSSSTAYMELRSLTSEDSAVYYCARRSPWWFFDVWGPGTTVIVSS
VL: DIVMTQSPSSLTVTAGEKVTMSCKSSQSLLNSGNQKNSLTWYQQKPGQPPKLLIYWASTRESGVPDRFTGSGSGTDFTLTISSVQTEDLAVYYCQNDYTYPFTFGTGTKLEIK
B4: anti-CSF-1R chimeric antibody C19C (antibody, V domains shown)
VH: B1 VH with K23T, N52Y, S102T
VL: B1 VL with M37I, N57S
B5: anti-CSF-1R chimeric antibody C6C (antibody, V domains shown)
VH: EVRLQQSGPELVKPGASVKISCKASGYTFTGYYMHWVKQSPEKSLEWIGEINPNTGSCTYNQKFTGKATLTVDKSSSTAYMQLTSLTSEDSAVYYCARLNYYWYFDVWGAGTTVTVSS
VL: DIVMTQSPSSLAMSVGQKVTMSCKSSQTLLNSNDQKNYLAWYQQKPGQSPKLLVYFASTRDSGVPDRFTGSGSGTDFTLTITSVQTEDLAVYYCQQDYSTPFTFGSGTKLEIQ
B6: anti-CSF-1R chimeric antibody C8C (antibody, V domains shown)
VH: QVQLQQSGTELVQPGASVKMTCKTSGYTFTNYWIAWVKQRPGQGLEWIGEMYPGGGGDNHHEKFKNKASLTVDMSSSTAYMQLSRLTFEDSAVYYCARRDYGNPCFDYWGQGTSLTVSS
VL: DIVLTQSPASLIVSLGQRATISCRASQGVTTSSHSYMHWYQQKLGQSPKLLIKYASNLESGVPARFSGSGSGTDFTLNIHPVEEEDTATYYCQHSWEIPYTFGGGTKLEIK
B7: anti-CSF-1R chimeric antibody C16C (antibody, V domains shown)
VH: QVQLQQSGPELVKPGASVKLSCKASGYTFTTYDINWVKQRPGQGLEWIGWVYPRDGSTKYNEKFKGKATLTVDTSSRTVYMEFHSLTSEDSAVYFCARSGLTGSPFAYWGQGTLVTVSA
VL: KIVLTQSPASLAVSLRQRATISCRASESFDSYGNTFMHWFQQKSGQPPKLLIYRASNLESGVPARFSGSGSRTDFTLTIDPVEADDAATYYCQQNNEYPLTFGSGTKLELK
B8: humanized anti-CSF-1R antibody huC11 (antibody, human IgG1, kappa, V domains shown)
VH: EVQLVQSGAEVKKPGASVKVSCKASGYTFSNYYMNWVRQAPGQGLEWMGEMNPNTGDSSYNQKFKGRVTLTVDKSTSTAYMELSSLRSEDTAVYYCARRSPWWFFDVWGQGTMVTVSS
VL: DIVMTQSPDSLAVSLGERATINCKSSQSLLSSGNQKTSLTWYQQKPGQPPKLLIYWASTRESGVPDRFSGSGSGTDFTLTISSLQAEDVAVYYCQNDYTYPFTFGQGTKLEIKR
notes: Full-length chains; also called huC11 (VH-b heavy chain and VL-b light chain)
B9: humanized anti-CSF-1R antibody huC19 (antibody, human IgG1, kappa, V domains shown)
VH: QVQLVQSGAEVKKPGASVKVSCKASAITFTDYYMNWVKQAPGQGLEWIGDIYPNTGGTTYNQKFKGRVTLTVDTSISTAYMELSRLRSEDTAVYYCAREKITMEYYYAMDYWGQGTLVTVSS
VL: DIQLTQSPSSLSASVGDRVTITCRASESVSSHDIHLIHWYQQKPGKAPKLLIYAASSLESGVPSRFSGSGSGTDFTLTISSLQPEDFATYFCQQSIEDPPTFGGGTKVEIKR
notes: Full-length chains; also called huC19 (VH-c heavy chain and VL-a light chain)

Each binder was assayed against cynomolgus monkey CSF-1R-His (cynomolgus monkey) (assay: ELISA on cynomolgus CSF-1R-His).

| Binder | binding |
| --- | --- |
| B1 | binds |
| B2 | binds |
| B3 | binds |
| B4 | binds |
| B5 | binds |
| B6 | binds |
| B7 | binds |

The binders below were run against Human CSF-1R ECD-His (human) (UniProt P07333) (assay: SPR (Biacore), antibody captured by anti-human IgG, h-CSF-1R-His as analyte).

| Binder | binding |
| --- | --- |
| B8 | binds |
| B9 | binds |
